These are yes or no findings as the source states them, for the method shown. In cells and extracts the contact can be indirect. These calls come from enrichment with a bait or labelling near it, and not all partners need be listed.
Tests used:
[1] = target: XRNA fused to a C-terminal mNeonGreen tag (T. brucei) (UniProt Q57XA6); test: affinity purification with mass spectrometry; T. brucei procyclic cells cryomilled; 20 mM HEPES pH 7.4, 250 mM NaCl, 0.5% CHAPS; capture on mNeonGreen Trap (XRNA-mNeonGreen) or GFP Trap (ALPH1 eYFP fusions) magnetic agarose; LC-MSMS; wild type cells as control
[2] = target: CMGC-type protein kinase Tb927.10.10870 as C-terminal TurboID-HA fusion (T. brucei) (UniProt Q389P3); test: proximity labelling; CMGC kinase Tb927.10.10870-TurboID-HA from its endogenous locus in T. brucei; streptavidin beads, LC-MSMS; compared with parental cells and the eYFP control
[3] = target: ALPH1 as C-terminal eYFP fusion (T. brucei) (UniProt Q583T9); test: affinity purification with mass spectrometry; T. brucei procyclic cells cryomilled; 20 mM HEPES pH 7.4, 250 mM NaCl, 0.5% CHAPS; capture on mNeonGreen Trap (XRNA-mNeonGreen) or GFP Trap (ALPH1 eYFP fusions) magnetic agarose; LC-MSMS; wild type cells as control
[4] = target: ALPH1 as N-terminal eYFP fusion (T. brucei) (UniProt Q583T9); test: as above

The chains behind the UniProt entries cited, without tags or fusion partners. Where a name states a change or a piece, a line headed by the entry shows the natural chain unless it says otherwise.
UniProt Q57XA6: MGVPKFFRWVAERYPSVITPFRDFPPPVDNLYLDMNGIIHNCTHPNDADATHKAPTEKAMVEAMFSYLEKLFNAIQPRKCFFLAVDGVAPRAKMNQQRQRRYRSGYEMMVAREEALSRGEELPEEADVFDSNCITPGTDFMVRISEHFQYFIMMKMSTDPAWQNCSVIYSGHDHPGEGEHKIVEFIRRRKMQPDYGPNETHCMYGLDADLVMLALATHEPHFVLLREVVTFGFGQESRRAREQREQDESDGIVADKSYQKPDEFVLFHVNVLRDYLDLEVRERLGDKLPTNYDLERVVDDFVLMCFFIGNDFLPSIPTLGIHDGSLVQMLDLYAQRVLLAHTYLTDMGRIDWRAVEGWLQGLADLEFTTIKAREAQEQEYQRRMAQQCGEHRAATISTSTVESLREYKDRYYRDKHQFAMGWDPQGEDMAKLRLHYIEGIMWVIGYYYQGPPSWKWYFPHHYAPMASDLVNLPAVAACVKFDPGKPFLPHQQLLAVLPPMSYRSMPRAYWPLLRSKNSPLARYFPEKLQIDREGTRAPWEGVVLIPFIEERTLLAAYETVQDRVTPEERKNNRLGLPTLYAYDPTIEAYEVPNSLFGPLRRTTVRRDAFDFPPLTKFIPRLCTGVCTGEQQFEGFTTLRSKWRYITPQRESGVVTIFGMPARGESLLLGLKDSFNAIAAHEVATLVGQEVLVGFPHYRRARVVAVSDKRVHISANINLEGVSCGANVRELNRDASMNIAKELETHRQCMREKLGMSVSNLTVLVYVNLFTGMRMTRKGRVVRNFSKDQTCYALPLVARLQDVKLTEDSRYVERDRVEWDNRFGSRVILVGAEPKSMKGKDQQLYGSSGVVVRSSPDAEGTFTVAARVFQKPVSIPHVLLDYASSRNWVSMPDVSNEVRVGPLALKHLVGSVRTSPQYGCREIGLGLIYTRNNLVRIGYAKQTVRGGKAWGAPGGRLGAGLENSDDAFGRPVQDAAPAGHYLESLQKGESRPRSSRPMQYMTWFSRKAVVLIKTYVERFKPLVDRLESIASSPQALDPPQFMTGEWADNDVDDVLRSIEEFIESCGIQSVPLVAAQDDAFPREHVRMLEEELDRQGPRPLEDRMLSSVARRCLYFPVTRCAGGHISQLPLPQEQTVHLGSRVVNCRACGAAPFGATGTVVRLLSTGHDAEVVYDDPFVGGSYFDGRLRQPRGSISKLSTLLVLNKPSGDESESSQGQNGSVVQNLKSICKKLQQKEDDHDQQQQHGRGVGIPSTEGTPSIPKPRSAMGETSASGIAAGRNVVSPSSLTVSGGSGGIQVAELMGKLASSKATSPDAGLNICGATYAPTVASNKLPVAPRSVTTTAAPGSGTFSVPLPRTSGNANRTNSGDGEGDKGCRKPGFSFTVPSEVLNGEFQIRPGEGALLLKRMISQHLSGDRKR
UniProt Q389P3: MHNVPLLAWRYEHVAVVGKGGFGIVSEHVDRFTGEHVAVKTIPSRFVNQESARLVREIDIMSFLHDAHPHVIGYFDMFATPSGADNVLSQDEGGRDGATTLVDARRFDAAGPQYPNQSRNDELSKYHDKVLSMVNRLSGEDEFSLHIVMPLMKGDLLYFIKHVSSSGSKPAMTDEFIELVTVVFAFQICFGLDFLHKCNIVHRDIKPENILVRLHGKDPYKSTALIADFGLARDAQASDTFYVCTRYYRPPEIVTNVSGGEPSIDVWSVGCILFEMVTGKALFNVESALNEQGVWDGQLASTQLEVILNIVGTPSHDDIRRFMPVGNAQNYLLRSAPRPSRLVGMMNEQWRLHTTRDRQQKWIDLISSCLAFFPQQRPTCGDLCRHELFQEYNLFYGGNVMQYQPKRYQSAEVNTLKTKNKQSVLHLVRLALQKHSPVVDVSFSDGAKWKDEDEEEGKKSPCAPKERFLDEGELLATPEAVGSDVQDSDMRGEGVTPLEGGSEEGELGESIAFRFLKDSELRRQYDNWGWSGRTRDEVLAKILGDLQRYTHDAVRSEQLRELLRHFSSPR
UniProt Q583T9: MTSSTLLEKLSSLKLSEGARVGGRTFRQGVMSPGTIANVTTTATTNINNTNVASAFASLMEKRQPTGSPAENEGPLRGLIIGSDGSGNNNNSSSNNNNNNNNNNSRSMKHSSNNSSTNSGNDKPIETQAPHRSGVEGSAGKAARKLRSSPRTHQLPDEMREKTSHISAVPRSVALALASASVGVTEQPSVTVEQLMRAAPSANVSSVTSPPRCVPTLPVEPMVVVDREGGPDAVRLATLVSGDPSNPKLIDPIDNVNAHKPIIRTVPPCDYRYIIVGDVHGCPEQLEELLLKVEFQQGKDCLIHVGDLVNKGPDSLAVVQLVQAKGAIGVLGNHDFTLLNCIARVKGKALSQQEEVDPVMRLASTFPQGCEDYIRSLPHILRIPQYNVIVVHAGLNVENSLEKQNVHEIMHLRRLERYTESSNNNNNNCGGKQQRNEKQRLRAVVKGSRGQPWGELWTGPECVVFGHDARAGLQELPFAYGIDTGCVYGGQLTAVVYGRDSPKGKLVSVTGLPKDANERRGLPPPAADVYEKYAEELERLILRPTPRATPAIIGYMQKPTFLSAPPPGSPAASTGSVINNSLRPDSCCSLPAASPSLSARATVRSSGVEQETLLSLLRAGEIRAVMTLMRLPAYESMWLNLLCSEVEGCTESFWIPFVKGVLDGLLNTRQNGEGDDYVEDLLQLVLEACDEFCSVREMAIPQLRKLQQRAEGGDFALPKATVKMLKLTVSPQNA
UniProt Q57XZ3: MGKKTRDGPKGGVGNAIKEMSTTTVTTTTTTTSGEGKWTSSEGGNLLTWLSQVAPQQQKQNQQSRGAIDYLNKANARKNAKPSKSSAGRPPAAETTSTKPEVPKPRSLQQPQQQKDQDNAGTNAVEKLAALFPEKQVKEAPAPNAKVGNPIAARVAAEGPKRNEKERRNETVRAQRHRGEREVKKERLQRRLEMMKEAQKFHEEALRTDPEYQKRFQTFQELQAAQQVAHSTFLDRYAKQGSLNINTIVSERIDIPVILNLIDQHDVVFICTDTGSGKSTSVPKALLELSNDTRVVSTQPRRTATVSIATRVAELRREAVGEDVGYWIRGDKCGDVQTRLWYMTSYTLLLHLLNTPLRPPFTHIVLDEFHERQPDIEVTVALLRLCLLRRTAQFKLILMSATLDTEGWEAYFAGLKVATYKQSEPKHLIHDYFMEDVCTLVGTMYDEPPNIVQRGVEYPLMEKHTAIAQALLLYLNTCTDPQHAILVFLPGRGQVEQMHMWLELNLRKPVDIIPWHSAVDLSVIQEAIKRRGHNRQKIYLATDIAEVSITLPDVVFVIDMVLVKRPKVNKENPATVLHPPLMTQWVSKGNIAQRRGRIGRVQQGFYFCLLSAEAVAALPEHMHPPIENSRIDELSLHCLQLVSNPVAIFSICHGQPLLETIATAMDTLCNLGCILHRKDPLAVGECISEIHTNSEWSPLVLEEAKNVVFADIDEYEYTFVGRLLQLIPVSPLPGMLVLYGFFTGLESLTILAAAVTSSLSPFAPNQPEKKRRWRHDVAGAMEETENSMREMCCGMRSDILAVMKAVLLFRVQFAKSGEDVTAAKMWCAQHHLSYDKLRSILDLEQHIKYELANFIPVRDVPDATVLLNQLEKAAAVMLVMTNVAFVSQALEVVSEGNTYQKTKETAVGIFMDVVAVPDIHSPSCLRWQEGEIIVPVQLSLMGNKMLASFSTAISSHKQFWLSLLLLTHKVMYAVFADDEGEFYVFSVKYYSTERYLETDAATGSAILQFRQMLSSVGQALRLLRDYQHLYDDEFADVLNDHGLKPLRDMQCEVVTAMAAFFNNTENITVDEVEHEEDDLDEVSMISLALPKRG
UniProt Q57UM8: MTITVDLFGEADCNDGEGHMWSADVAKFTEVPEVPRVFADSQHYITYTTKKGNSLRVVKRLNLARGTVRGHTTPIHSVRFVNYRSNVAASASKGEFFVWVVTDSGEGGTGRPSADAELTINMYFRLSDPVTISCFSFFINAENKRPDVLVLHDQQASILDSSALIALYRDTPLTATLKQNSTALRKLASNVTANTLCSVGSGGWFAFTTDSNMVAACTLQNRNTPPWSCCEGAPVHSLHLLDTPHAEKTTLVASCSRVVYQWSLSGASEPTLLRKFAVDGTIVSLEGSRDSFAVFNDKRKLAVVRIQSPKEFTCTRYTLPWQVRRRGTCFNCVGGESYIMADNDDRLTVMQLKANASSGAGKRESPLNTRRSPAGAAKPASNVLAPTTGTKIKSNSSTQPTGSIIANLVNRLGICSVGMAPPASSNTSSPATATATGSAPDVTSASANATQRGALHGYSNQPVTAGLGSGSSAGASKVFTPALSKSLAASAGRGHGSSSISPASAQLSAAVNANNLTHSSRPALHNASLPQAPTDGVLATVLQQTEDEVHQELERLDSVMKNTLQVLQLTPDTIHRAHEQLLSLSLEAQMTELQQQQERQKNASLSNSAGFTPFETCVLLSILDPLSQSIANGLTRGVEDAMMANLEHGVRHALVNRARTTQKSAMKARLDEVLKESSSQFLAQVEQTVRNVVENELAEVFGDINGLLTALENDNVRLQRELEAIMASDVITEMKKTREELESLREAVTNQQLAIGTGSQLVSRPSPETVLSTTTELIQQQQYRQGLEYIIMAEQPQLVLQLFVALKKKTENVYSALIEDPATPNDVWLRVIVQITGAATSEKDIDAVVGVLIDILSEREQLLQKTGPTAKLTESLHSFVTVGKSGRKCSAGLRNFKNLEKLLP

Substance | binding [1] | binding [2] | binding [3] | binding [4]
ALPH1, endogenous (from UniProt Q583T9) (enzyme) | binds | binds |  | 
RNA helicase Tb927.4.3890, endogenous (from UniProt Q57XZ3) (enzyme) | binds |  |  | 
Tc40 antigen-like protein Tb927.7.3980, endogenous (from UniProt Q57UM8) |  | binds | binds | binds
